Results deposited as PubChem BioAssay AID504786 (Drosophila RNAi Screening Center, 2011)

- Assay: 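Fly genes required for HIF-dependent transcription when hypoxia is mimicked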 (primary screen)
- Cells: Drosophila S2 cells with a stable HIF luciferase reporter
- Reagents: long dsRNA against Drosophila genes, about 0.2 µg dsRNA per well of a 384-well plate
- Timing: three days of knock-down, then 20 h of DFO before reading
- Treatment: desferrioxamine (DFO) at 100 µM, an iron chelator that mimics hypoxia, for 20 h
- Detection: 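Firefly luciferase driven by the mouse ldh-a hypoxia-response element, measured after 20 h of 100 µM DFO; z-scores per plate, higher means more signal lost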
- Direction: z-score: higher = stronger loss of HIF reporter signal
In all, the deposit lists about 21,000 reagents; this is an unselected part of those with a known target gene and a result. 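Primary screen; positive scores mean lost reporter signal, so the sign may be inverted from the usual convention.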 Reagents against one gene are numbered here. Names joined by + are all predicted targets of the reagent.

Gene | dsRNA no. | z-score, replicate 1 | z-score, replicate 2
Hrb98DE (Heterogeneous nuclear ribonucleoprotein at 98DE) | 1 | 0.1 | 0.6
gdl-ORF39 + gdl | 1 | -0.3 | 0.1
CG34168 | 1 | 2.6 | -0.1
obst-F (obstructor-F) | 1 | -0.2 | 0.4
Cht7 (Chitinase 7) | 1 | -0.1 | 0
rhi (rhino) | 1 | -0.2 | 0.1
CG9676 | 1 | 0.1 | -0.3
CG14342 | 1 | -0.4 | -0.4
Vps60 (Vacuolar protein sorting 60) | 1 | -0.1 | -0.7
Obp83g (Odorant-binding protein 83g) | 1 | -0.3 | -0.7
mirr (mirror) | 1 | -0.2 | -0.4
Sobp (Sine oculis-binding protein) | 1 | -0.4 | -0.8
Trpml + CG42638 | 1 | -0.3 | 0.4
CG18130 | 1 | -0.4 | -0.7
fbp (fructose-1,6-bisphosphatase) | 1 | -0.3 | -0.4
CG30487 | 1 | -0.3 | -0.2
Ir11a (Ionotropic receptor 11a) | 1 | -0.3 | -0.6
GAPsec (GTPase activating protein, SECIS-dependent read-through) | 1 | -0.1 | -0.2
Rab39 | 1 | -0.3 | 0.3
CG13872 | 1 | -0.3 | -0.2
Hsp110 (Heat shock protein 110) | 1 | 0.3 | 1.5
mlt (mulet) | 1 | -0.4 | -0.4
CG34126 | 1 | -0.3 | 0
Cad88C (Cadherin 88C) | 1 | -0.3 | 0.1
CG33342 (HDC15381) | 1 | -0.3 | -0.2
CG32669 | 1 | -0.3 | -0.3
Cad87A (Cadherin 87A) | 1 | -0.3 | -0.2
CG13868 | 1 | -0.2 | -0.5
CG30116 | 1 | -0.2 | -0.4
CG30116 | 2 | -0.2 | -0.4
CG5535 | 1 | -0.2 | -0.5
CG33296 | 1 | 0.1 | -0.1
CG30076 | 1 | -0.1 | -0.1
CG17111 | 1 | -0.3 | -0.2

Part of the list above, showing only “z-score, replicate 2”:
Vps60 (Vacuolar protein sorting 60)	-0.7
Obp83g (Odorant-binding protein 83g)	-0.7
